Paper PMC11655846
Results are given in words; binding and its absence hold for the method and conditions named. Binding seen in cells or lysates may run through a third protein. Some results given as binding are weak or reduced against the parent protein; the word gives no strength.

Target: T1, ubiquitin-specific peptidase 39 (USP39) (human (endogenous in NCI-H1975)) (UniProt Q53GS9)
T1 sequence: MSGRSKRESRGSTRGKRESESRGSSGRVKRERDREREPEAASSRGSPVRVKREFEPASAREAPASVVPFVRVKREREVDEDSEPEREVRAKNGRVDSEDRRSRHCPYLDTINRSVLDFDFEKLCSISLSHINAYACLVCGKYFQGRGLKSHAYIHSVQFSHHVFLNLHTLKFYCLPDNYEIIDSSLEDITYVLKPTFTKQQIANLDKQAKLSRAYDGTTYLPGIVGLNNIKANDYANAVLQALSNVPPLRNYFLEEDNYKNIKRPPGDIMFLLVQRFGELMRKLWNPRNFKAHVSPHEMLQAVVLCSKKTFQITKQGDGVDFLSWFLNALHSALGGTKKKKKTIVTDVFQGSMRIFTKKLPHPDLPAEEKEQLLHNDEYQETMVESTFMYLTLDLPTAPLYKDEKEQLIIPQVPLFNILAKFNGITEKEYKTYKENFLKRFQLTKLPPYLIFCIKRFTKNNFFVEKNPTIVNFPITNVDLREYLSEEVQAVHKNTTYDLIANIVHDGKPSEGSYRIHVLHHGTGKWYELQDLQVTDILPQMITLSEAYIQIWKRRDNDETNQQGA
Experiment: co-IP; same immunoconjugates (USP39 antibody on Dynabeads Protein A, NCI-H1975 lysate in 1% digitonin, 150 mM NaCl, 25 mM Tris, pH 7.5); 10% analysed by immunoblotting

binding: binds
B1: dihydrolipoamide S-acetyltransferase (DLAT) (enzyme, UniProt P10515 87-647)
chain: SLPPHQKVPLPSLSPTMQAGTIARWEKKEGDKINEGDLIAEVETDKATVGFESLEECYMAKILVAEGTRDVPIGAIICITVGKPEDIEAFKNYTLDSSAAPTPQAAPAPTPAATASPPTPSAQAPGSSYPPHMQVLLPALSPTMTMGTVQRWEKKVGEKLSEGDLLAEIETDKATIGFEVQEEGYLAKILVPEGTRDVPLGTPLCIIVEKEADISAFADYRPTEVTDLKPQVPPPTPPPVAAVPPTPQPLAPTPSAPCPATPAGPKGRVFVSPLAKKLAVEKGIDLTQVKGTGPDGRITKKDIDSFVPSKVAPAPAAVVPPTGPGMAPVPTGVFTDIPISNIRRVIAQRLMQSKQTIPHYYLSIDVNMGEVLLVRKELNKILEGRSKISVNDFIIKASALACLKVPEANSSWMDTVIRQNHVVDVSVAVSTPAGLITPIVFNAHIKGVETIANDVVSLATKAREGKLQPHEFQGGTFTISNLGMFGIKNFSAIINPPQACILAIGASEDKLVPADNEKGFDVASMMSVTLSCDHRVVDGAVGAQWLAEFRKYLEKPITMLL
